Assay results published in the supplement of paper PMC10849652.
The list shows a part of the results.

Sequences of proteins named here, by UniProt entry; tags and fusion partners are left off. A change or cut given only in a name is not applied to a line headed by its entry.
UniProt Q7L592: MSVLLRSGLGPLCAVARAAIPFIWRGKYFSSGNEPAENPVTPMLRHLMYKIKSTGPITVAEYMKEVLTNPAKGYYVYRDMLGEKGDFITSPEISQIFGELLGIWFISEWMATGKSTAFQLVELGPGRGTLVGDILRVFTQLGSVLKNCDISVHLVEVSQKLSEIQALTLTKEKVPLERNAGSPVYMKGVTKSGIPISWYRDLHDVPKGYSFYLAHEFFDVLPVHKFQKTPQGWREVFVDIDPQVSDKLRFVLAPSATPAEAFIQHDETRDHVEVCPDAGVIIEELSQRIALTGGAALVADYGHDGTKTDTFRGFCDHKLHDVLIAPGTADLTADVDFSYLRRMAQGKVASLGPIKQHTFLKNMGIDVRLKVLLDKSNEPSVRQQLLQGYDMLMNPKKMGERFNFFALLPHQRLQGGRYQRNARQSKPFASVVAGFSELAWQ
UniProt O43674, whole entry, looked up: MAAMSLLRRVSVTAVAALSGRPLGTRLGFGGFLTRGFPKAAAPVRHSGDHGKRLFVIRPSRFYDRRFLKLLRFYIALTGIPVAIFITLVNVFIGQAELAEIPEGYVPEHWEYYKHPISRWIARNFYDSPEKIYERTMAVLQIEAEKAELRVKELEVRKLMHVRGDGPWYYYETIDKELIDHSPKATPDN
UniProt O76041: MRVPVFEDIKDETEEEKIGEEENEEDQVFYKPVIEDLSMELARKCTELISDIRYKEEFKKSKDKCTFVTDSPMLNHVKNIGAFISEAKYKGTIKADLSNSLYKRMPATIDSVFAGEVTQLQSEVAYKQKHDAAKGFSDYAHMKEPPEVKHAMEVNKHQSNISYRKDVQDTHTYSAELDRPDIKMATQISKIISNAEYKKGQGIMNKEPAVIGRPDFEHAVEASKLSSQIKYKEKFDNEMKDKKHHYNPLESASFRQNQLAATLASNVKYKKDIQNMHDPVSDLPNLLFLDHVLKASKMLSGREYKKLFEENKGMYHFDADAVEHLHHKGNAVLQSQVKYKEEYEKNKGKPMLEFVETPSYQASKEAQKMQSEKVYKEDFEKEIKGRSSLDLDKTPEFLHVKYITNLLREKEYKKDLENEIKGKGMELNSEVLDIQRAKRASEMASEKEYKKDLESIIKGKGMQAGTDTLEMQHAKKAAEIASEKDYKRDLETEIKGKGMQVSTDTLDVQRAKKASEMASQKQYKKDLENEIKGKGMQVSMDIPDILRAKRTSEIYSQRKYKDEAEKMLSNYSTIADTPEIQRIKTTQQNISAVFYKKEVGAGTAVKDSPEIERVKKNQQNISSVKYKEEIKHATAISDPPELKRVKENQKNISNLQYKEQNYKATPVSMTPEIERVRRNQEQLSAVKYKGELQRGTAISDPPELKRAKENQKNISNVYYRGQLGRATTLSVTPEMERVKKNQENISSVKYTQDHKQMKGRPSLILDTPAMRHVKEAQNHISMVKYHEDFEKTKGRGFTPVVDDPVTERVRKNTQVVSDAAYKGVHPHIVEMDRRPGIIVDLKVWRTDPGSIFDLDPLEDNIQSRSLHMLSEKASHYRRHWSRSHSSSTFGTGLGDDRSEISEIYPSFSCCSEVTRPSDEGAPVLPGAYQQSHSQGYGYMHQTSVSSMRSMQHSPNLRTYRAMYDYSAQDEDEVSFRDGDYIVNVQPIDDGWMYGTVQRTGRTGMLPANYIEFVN
UniProt Q9H0A0: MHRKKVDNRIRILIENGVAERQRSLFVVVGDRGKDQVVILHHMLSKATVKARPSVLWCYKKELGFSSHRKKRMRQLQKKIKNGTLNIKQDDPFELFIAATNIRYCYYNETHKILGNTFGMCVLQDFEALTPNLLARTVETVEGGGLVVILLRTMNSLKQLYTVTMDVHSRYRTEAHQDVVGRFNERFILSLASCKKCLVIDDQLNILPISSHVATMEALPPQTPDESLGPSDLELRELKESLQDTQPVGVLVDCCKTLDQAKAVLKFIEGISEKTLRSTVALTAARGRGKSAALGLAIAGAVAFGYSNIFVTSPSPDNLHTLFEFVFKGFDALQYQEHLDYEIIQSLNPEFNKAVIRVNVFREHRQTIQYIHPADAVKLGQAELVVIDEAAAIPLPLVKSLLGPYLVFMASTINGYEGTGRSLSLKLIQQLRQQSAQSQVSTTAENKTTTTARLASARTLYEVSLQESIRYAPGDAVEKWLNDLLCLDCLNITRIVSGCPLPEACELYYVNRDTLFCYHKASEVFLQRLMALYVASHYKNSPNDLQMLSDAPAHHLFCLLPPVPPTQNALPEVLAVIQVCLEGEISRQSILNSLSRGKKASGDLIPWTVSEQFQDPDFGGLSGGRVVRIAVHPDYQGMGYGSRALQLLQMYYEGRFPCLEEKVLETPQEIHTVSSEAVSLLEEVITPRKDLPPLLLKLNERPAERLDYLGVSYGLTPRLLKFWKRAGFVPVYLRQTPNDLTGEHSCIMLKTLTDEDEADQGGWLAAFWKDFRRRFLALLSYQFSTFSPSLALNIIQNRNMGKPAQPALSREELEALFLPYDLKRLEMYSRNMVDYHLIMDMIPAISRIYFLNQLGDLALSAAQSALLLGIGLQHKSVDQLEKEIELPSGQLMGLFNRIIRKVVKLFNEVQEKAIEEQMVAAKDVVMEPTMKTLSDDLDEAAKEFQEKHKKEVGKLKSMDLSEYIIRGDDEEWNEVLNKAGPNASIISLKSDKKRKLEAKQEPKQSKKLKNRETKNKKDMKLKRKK
UniProt Q8NCW5: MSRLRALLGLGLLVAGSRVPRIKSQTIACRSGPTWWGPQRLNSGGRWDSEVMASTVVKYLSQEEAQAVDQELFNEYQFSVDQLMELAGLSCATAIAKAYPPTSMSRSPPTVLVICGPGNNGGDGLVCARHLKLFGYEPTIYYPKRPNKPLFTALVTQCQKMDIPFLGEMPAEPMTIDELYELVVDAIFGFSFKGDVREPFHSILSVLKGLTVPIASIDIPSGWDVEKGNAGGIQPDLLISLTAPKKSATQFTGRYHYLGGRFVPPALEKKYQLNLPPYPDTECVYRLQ
UniProt Q4G0N4: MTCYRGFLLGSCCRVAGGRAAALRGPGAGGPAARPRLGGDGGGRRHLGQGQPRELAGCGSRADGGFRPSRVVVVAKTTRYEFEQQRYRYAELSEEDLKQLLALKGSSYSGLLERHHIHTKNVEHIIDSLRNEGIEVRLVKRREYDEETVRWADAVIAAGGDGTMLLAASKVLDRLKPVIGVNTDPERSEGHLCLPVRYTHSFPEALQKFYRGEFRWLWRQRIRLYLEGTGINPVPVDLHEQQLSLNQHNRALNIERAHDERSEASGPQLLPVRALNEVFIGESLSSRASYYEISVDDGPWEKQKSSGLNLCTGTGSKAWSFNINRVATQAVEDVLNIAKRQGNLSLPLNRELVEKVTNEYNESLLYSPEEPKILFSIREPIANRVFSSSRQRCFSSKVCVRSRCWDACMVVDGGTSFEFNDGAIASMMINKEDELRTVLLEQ
UniProt Q9UN36: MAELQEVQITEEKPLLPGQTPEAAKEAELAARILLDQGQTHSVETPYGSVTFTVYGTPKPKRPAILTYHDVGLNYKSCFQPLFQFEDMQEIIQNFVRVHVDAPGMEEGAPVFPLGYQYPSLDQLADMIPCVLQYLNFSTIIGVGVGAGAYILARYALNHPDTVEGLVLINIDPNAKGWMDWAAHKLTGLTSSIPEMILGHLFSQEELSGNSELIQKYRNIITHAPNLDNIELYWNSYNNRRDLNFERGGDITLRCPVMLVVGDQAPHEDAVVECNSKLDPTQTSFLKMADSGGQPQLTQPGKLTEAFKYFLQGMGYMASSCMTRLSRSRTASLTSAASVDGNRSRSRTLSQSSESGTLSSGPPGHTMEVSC
UniProt P52298: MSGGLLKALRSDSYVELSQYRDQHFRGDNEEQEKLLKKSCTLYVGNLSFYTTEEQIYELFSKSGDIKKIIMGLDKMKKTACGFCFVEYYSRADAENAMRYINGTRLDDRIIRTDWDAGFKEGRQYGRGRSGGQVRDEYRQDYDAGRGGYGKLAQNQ
UniProt Q8NHV4, whole entry, looked up: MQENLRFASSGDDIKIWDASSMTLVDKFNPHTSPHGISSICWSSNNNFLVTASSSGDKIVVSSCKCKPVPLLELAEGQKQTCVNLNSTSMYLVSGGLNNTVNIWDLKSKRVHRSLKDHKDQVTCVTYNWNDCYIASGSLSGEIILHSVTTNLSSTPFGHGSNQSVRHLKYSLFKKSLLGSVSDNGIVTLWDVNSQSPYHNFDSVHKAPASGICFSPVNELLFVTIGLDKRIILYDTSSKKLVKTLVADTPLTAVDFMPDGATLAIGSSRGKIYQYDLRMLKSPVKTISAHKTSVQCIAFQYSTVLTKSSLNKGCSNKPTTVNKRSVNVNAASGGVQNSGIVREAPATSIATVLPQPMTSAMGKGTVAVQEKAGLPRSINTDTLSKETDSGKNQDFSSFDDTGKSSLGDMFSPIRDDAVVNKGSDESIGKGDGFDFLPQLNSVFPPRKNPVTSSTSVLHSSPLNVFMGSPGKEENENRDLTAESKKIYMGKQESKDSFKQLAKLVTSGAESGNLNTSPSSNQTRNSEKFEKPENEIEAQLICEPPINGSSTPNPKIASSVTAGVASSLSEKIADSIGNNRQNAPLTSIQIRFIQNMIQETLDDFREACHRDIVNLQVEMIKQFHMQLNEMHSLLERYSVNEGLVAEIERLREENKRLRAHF
UniProt O95298, whole entry, looked up: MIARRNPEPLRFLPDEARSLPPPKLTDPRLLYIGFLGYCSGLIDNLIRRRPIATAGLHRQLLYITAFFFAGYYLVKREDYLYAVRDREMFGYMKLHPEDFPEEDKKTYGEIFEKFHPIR
UniProt P52848: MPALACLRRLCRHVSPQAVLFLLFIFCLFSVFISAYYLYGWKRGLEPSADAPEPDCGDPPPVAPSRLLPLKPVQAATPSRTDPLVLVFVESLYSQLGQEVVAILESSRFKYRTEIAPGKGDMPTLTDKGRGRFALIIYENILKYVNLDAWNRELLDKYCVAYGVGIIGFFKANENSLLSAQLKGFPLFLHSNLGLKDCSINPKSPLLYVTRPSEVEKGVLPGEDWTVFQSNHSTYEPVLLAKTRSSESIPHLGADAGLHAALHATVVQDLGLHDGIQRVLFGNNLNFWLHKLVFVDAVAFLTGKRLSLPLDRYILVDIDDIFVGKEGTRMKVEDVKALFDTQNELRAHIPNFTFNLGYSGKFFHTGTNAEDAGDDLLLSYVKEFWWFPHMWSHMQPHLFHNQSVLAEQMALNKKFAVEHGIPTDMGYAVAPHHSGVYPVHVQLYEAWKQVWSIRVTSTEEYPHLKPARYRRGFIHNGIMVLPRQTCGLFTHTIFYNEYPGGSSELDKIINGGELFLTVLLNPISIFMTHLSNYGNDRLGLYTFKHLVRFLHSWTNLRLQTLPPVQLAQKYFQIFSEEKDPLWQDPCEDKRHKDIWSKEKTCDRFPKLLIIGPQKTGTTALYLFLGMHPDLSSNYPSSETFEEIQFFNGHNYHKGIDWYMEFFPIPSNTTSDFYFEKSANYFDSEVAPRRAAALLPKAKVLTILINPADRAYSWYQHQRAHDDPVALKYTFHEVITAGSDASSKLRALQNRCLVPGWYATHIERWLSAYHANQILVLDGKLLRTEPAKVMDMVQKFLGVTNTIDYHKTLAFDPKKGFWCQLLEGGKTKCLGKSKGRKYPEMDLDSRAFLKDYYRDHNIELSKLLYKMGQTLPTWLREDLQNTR
UniProt Q99733: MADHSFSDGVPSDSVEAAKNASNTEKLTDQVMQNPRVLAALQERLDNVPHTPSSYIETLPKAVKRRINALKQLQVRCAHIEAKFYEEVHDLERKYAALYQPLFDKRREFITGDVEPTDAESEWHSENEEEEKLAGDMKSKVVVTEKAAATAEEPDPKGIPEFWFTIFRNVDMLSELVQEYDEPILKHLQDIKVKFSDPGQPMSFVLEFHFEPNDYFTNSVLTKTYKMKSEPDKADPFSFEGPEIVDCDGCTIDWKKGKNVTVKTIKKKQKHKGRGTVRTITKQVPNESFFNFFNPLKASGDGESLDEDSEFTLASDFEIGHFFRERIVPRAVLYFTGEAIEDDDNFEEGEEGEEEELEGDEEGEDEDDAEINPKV
UniProt O95168, whole entry, looked up: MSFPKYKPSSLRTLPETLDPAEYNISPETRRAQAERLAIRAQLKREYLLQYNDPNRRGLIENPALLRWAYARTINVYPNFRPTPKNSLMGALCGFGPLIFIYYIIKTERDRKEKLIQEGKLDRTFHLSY
UniProt O75306, whole entry, looked up: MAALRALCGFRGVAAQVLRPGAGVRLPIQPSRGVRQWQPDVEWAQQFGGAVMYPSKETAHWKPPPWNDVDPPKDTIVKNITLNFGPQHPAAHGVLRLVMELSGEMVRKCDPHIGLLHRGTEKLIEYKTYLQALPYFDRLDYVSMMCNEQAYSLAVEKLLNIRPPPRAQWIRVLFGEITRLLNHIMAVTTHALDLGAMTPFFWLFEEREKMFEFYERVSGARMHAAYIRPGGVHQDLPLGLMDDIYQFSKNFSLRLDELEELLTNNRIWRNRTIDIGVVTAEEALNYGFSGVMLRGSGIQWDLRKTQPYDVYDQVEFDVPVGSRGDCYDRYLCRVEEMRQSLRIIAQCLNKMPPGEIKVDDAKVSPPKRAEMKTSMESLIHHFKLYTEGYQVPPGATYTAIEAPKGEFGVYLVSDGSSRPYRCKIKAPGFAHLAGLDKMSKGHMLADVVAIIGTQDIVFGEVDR

Compound: c1cn2cc(-c3ccc4cn[nH]c4c3)nc(Nc3ccc(N4CCOCC4)cc3)c2n1 [entospletinib]
Test: log2 fold change, soluble protein after heating vs DMSO (PISA); higher = thermal stabilisation; K562 cells, 10 uM, 30 min; active = over 0.2 and 3.5 SD of the protein, either way, in both replicates (recomputed)
Summary of the method: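 Quantification of soluble protein used TMTpro 16plex LC-MS/MS, with channel sums equalised. Samples were the supernatant after 21,000xg for 90 min of pooled aliquots from K562 cells (2×10^6 cells/mL) treated with 10 μM compound for 30 min, heated for 3 min over 48°C-58°C, and extracted in PBS with 0.5% NP-40 at 4°C. Values, from duplicates, describe thermal stability against control samples on a log2 fold-change scale.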

Target	log2 fold change
NARS1 (UniProt O43776)	inactive: 0.001
NDUFB6 (UniProt O95139)	inactive: -0.051
NCEH1 isoform 2 (UniProt Q6PIU2)	inactive: 0.056
MYO9B (UniProt Q13459)	inactive: 0.085
NCAPD3 (UniProt P42695)	inactive: -0.106
NDC80 (UniProt O14777)	inactive: 0.255
NDUFAB1 (UniProt O14561)	inactive: 0.409
NAMPT (UniProt C9JF35)	inactive: -0.142
NDUFAF7 (UniProt Q7L592)	inactive: -0.026
NDUFB5 (UniProt O43674)	inactive: -0.018
NDUFS1 isoform 2 (UniProt P28331)	inactive: 0.026
NEBL (UniProt O76041)	inactive: -0.064
NDUFA13 (UniProt Q9P0J0)	inactive: 0.008
NAT10 (UniProt Q9H0A0)	inactive: 0.002
NAXE (UniProt Q8NCW5)	inactive: 0.004
NADK2 (UniProt Q4G0N4)	inactive: -0.013
NECAP2 (UniProt Q9NVZ3)	inactive: -0.001
NACA4P (UniProt Q9BZK3)	inactive: -0.044
NDRG2 (UniProt Q9UN36)	inactive: -0.04
NCK2 (UniProt O43639)	inactive: -0.196
NDC1 (UniProt Q9BTX1)	inactive: 0.029
NDUFS5 (UniProt O43920)	inactive: 0.004
MZT2A (UniProt Q6P582)	inactive: -0.037
NDUFS3 (UniProt O75489)	inactive: 0.027

Target	log2 fold change
NAMPT (UniProt P43490)	inactive: 0.001
NCBP2 (UniProt P52298)	inactive: 0.002
NACA (UniProt E9PAV3)	inactive: -0.014
NAGLU (UniProt P54802)	inactive: 0.003
NAA10 (UniProt P41227)	inactive: -0.028
NAPA (UniProt P54920)	inactive: -0.02
NEDD1 isoform 3 (UniProt Q8NHV4)	inactive: -0.022
NDUFB11 isoform 2 (UniProt Q9NX14)	inactive: -0.006
NAAA (UniProt Q02083)	inactive: -0.073
NCOA3 (UniProt Q9Y6Q9)	inactive: 0.258
NDUFC1 (UniProt O43677)	inactive: -0.012
NDUFAF3 (UniProt Q9BU61)	inactive: -0.015
NDUFV3 isoform 2 (UniProt P56181)	inactive: 0.042
N4BP1 (UniProt O75113)	inactive: -0.124
NAA20 (UniProt P61599)	inactive: 0.035
NDUFV3 (UniProt P56181)	inactive: -0.025
NANP (UniProt Q8TBE9)	inactive: 0.082
NDUFAF5 (UniProt Q5TEU4)	inactive: 0.023
NCALD (UniProt P61601)	inactive: 0
NAA50 (UniProt Q9GZZ1)	inactive: -0.049
NAXD (UniProt Q8IW45)	inactive: 0.008
NCS1 (UniProt P62166)	inactive: 0.04
NDUFAF4 (UniProt Q9P032)	inactive: 0.025
NCAPG2 isoform 2 (UniProt Q86XI2)	inactive: 0.069

Target	log2 fold change
NDUFB9 (UniProt Q9Y6M9)	inactive: 0.053
NDUFC2 (UniProt O95298)	inactive: -0.073
NDUFAF1 (UniProt Q9Y375)	inactive: -0.018
NDUFV1 (UniProt P49821)	inactive: -0.016
NDOR1 isoform 2 (UniProt Q9UHB4)	inactive: -0.167
NAA16 (UniProt Q6N069)	inactive: 0.004
NDST1 (UniProt P52848)	inactive: 0.169
NEBL isoform 2 (UniProt O76041)	inactive: 0.024
NCAPH2 isoform 4 (UniProt Q6IBW4)	inactive: -0.019
NAP1L4 isoform 2 (UniProt Q99733)	inactive: 0.012
NAA40 (UniProt Q86UY6)	inactive: 0.263
NDUFA8 (UniProt P51970)	inactive: -0.011
NDEL1 isoform 2 (UniProt Q9GZM8)	inactive: -0.037
NDUFB4 (UniProt O95168)	inactive: 0.085
NADK (UniProt O95544)	inactive: -0.005
NDUFA10 (UniProt O95299)	inactive: 0.006
NCSTN (UniProt Q92542)	inactive: -0.044
NDUFV2 (UniProt P19404)	inactive: -0.034
NDUFA3 (UniProt O95167)	inactive: 0.107
NCDN isoform 3 (UniProt Q9UBB6)	inactive: 0.073
NDUFS2 (UniProt O75306)	inactive: -0.018
NDUFA2 (UniProt O43678)	inactive: 0.029

Some of the entries above, reformatted.
NEBL isoform 2 (UniProt O76041)
  log2 fold change: inactive: 0.024
NCAPH2 isoform 4 (UniProt Q6IBW4)
  log2 fold change: inactive: -0.019
NAP1L4 isoform 2 (UniProt Q99733)
  log2 fold change: inactive: 0.012
